Source: doi:10.1101/2020.05.04.077941

Biological target: T1, NEPH1 (endogenous, podocytes) (human (endogenous in cultured human podocytes)) (UniProt Q96J84)
T1 sequence: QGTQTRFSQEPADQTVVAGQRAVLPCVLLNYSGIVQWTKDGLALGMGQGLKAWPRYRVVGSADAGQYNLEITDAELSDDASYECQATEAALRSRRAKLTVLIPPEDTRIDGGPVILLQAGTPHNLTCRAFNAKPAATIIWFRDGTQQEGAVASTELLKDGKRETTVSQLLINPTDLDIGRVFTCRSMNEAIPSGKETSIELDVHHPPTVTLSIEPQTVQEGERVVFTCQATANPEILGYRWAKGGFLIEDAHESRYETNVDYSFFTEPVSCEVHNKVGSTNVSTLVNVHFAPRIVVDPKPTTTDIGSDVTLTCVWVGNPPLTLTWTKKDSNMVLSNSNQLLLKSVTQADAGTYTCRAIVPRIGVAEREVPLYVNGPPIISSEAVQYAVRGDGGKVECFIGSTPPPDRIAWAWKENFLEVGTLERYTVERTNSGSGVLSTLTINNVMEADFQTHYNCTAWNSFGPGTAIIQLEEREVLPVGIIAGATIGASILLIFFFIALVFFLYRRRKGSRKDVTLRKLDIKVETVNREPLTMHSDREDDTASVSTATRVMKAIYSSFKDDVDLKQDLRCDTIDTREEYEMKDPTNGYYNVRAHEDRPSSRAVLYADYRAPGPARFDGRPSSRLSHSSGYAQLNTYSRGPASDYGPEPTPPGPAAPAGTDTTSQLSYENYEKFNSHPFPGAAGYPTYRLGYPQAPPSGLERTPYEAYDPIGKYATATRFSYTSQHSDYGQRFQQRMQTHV
Assay: affinity purification with mass spectrometry

SHP-2 (endogenous, podocytes) (from UniProt Q06124 1-593) (enzyme)
binding: binds

These are yes or no findings as the source states them, for the method shown. Binding seen in cells or lysates may run through a third protein. A yes stands for co-enrichment or nearness to the bait. Other partners may have been found.
